According to patent publication US5538945A (ProCyte Corporation, priority 1994, dated 1996):

Test: general procedure: solution-phase peptide synthesis; isobutyl chloroformate / N-methylmorpholine (mixed anhydride)
Conditions: late stage modification step, dihydrochloride

Substance | step yield [%]
Glycyl-L-Histidyl-L-Lysyl-L-Phenylalanine | 94
Glycyl-L-Histidyl-L-Lysyl-L-Phenylalanyl-L-Phenylalanine | 82
